These are yes or no findings as the source states them, for the method shown. In cells and extracts the contact can be indirect. Some results given as binding are weak or reduced against the parent protein; the word gives no strength.
Molecular target: ASC (apoptosis-associated speck-like protein containing a CARD), endogenous (human (endogenous in THP-1)) (UniProt Q9ULZ3)
Assay: co-IP; immunoprecipitation with anti-ASC from lysates of LPS-primed, ATP-treated THP-1-derived macrophages (shRNA-Ctrl, shRNA-SHP2 or shRNA-ANT1), protein A/G-agarose, immunoblot

Sequences of proteins named here, by UniProt entry; tags and fusion partners are left off.
UniProt Q9ULZ3: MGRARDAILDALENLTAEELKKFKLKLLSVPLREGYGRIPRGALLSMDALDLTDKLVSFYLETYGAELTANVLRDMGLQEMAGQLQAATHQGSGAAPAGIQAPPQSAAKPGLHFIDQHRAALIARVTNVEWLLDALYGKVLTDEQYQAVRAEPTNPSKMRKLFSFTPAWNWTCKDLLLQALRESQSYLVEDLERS
UniProt P29466: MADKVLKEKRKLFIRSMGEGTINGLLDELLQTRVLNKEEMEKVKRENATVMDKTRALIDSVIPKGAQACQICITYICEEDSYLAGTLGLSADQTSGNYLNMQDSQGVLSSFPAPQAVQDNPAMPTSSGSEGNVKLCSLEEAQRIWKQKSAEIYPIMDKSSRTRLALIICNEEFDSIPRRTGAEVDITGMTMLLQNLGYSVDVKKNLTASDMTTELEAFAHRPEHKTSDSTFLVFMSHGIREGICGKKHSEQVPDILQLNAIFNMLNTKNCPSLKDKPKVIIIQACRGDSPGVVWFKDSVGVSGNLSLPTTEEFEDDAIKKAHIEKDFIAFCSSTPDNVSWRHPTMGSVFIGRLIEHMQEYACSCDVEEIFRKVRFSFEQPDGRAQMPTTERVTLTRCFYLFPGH

- binding: binds
Substance: pro-caspase-1, endogenous (from UniProt P29466 1-404) (enzyme)

From article PMC5735095
